This note sets out measurements from patent publication US20100099627A1 (YEDA RESEARCH AND DEVELOPMENT, published 2010).

Chains of the proteins cited; added tags and fusions are not shown.
UniProt O95373: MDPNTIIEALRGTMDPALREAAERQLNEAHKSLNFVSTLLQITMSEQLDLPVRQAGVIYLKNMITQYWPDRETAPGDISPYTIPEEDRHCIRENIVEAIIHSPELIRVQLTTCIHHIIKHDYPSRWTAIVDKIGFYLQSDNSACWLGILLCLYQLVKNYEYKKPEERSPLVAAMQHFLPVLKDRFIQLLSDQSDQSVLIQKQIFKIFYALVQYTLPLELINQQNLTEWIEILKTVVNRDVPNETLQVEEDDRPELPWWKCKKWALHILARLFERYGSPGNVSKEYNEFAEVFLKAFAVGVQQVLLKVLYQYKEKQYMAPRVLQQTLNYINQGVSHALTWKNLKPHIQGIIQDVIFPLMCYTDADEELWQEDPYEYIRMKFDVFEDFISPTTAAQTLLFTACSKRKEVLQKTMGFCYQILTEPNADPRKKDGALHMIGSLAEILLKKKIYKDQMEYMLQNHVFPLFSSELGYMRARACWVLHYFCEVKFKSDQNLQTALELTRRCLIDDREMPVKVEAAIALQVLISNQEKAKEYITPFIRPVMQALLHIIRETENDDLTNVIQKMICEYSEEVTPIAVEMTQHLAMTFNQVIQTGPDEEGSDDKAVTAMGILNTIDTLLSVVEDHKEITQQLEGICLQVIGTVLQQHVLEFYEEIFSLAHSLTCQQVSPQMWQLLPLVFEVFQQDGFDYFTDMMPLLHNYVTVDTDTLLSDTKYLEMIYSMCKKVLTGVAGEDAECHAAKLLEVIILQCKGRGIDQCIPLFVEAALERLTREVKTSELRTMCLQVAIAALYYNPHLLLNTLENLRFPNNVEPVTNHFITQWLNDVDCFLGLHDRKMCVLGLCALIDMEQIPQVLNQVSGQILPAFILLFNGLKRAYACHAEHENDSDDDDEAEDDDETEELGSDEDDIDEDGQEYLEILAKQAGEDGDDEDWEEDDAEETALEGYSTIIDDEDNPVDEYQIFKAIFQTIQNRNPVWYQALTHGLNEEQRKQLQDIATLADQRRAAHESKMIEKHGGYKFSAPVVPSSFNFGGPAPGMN

Results are given in words; binding and its absence hold for the method and conditions named. In cells and extracts the contact can be indirect. Some results given as binding are weak or reduced against the parent protein; the word gives no strength. Tags and fused reporters may be left off the sequences shown.

This experiment deals with importin-7 (mammalian (e.g. human)) (UniProt O95373). Description: co-immunoprecipitation with anti GFP Ab from HeLa cells, without EGF stimulation.

In the case of LDQLNHILGILGSPSQEDL (peptide, not shown: large carriers, SPS peptide phosphorylated upon stimulation with EGF or VOOH) [2GFP-SPS], the binding entry is on record as “binds”.

With LDQLNHILGILGEPEQEDL (peptide, not shown: large carriers) [2GFP-EPE], the binding result is “binds”.
